Numbering of substitutions follows the chain as printed. These are yes or no findings as the source states them, for the method shown. Binding seen in cells or lysates may run through a third protein. Some entries that bind do so weakly or less than the wild type. Values belong to the binder of their own block, whether it stands above or below them.
Target: human EGFR (human) (UniProt P00533)
Experiment: human-EGFR bead pull-down, pooled library, MS

- binding: binds
B1: AC2884 (EGFR.36/CD3.23 paTCE) (bispecific antibody)
scFv 1: DIQMTQSPSSLSASVGDRVTITCQASQDISNYLNWYQQKPGKAPKLLIYDASNLETGVPSRFSGSGSGTDFTFTISSLQPEDIATYYCQHFDHLPLAFGQGTKVEIKGATPPETGAETESPGETTGGSAESEPPGEGQVQLQQWGAGLLKPSETLSLTCAVYGGSVSSGDYYWTWIRQPPGKGLEWIGHIYYSGNTNYNPSLKSRVTISVDTSKNQFSLKLSSVTAADTAVYYCARDRVTGAFDIWGQGTLVTVSS
scFv 2: ELVVTQEPSLTVSPGGTVTLTCRSSNGAVTSSNYANWVQQKPGQAPRGLIGGTNKRAPGTPARFSGSLLGGKAALTLSGVQPEDEAVYYCALWYPNLWVFGGGTKLTVLGATPPETGAETESPGETTGGSAESEPPGEGEVQLLESGGGIVQPGGSLKLSCAASGFTFNTYAMNWVRQAPGKGLEWVARIRSKYNNYATYYADSVKDRFTISRDDSKNTVYLQMNNLKTEDTAVYYCVRHENFGNSYVSWFAHWGQGTLVTVSS

- binding: binds
B2: AC2896 (EGFR.48/CD3.23 paTCE) (bispecific antibody)
scFv 1: B1 scFv 1 with F73L, I83F
scFv 2: B1 scFv 2

— patent US20240400696A1
